Results reported in the supplement of paper PMC12823440, “Inhibitors supercharge kinase turnover through native proteolytic circuits” (Nature, 2025).
The other results are listed elsewhere or left out. The calls rarely recur for the same compound in another form.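 Kinases, fused to nanoluciferase, were expressed in K562 cells; luminescence was measured every 4 h from 2 to 18 h as percent of control (DMSO = 100%, positive control = 0%). A time point is decreased if signal falls significantly (2 sigma). Hits were called by the authors by a rule that is not shown; the count of time points alone does not decide it.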

Protein sequences, listed by entry. Tags and fused reporters are not part of them. Lines headed by an entry give the natural chain unless they say otherwise; changes in a name come on top.
UniProt P10398: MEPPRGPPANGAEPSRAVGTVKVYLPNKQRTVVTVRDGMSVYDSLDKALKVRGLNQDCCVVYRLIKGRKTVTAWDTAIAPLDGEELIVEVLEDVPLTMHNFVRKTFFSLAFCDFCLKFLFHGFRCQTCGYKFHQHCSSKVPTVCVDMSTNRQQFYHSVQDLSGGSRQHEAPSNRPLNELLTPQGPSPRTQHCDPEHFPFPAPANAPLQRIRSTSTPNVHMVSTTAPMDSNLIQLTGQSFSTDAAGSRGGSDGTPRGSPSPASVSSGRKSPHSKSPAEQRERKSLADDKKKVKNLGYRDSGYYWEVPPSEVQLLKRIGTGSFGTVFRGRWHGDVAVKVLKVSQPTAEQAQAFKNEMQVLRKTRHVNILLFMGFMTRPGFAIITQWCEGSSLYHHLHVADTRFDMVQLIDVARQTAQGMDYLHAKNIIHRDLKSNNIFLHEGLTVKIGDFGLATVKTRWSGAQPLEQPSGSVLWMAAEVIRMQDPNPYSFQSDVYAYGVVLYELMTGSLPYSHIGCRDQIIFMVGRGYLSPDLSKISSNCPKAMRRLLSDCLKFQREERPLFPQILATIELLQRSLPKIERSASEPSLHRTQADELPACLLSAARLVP
UniProt Q96GD4, whole entry: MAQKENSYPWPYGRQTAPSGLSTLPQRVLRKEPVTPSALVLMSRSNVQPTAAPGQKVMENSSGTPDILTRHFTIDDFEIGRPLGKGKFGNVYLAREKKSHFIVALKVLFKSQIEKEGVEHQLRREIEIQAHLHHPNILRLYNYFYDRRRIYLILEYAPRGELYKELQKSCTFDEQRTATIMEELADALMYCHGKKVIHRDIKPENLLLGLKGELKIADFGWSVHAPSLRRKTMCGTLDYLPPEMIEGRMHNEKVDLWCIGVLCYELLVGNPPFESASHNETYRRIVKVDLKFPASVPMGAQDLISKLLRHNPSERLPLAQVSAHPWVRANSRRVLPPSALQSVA
UniProt P51451: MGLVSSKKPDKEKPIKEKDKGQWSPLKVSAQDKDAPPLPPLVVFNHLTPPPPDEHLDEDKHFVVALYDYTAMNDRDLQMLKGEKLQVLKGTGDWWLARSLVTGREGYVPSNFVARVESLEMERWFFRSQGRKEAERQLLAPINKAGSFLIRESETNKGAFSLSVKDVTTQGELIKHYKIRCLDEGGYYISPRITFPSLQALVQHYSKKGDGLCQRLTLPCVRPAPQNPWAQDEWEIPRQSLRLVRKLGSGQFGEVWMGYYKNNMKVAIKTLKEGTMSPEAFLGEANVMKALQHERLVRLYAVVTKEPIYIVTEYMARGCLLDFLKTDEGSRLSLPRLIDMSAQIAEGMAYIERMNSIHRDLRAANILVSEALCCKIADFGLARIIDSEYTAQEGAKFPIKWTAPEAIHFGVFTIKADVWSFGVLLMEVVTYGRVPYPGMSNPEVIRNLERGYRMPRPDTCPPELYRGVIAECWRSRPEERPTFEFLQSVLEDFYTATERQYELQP
UniProt P51813: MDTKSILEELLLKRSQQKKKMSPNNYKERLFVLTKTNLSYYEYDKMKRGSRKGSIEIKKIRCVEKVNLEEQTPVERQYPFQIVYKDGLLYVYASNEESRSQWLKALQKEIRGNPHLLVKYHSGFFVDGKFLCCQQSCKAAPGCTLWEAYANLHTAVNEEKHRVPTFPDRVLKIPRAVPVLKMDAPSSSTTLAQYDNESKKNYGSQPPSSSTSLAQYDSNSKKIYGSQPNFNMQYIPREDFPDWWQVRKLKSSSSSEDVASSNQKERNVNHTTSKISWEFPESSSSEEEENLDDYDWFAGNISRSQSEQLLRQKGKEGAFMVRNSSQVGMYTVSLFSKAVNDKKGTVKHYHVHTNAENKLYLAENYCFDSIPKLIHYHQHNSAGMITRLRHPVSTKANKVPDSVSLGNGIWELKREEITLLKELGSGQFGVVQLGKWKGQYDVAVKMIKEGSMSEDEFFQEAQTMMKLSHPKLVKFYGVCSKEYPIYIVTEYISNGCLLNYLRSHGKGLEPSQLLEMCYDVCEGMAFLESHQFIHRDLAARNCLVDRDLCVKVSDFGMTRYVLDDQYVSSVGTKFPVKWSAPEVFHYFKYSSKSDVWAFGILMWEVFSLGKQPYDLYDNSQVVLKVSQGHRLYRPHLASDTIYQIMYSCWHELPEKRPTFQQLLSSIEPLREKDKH
UniProt Q06187: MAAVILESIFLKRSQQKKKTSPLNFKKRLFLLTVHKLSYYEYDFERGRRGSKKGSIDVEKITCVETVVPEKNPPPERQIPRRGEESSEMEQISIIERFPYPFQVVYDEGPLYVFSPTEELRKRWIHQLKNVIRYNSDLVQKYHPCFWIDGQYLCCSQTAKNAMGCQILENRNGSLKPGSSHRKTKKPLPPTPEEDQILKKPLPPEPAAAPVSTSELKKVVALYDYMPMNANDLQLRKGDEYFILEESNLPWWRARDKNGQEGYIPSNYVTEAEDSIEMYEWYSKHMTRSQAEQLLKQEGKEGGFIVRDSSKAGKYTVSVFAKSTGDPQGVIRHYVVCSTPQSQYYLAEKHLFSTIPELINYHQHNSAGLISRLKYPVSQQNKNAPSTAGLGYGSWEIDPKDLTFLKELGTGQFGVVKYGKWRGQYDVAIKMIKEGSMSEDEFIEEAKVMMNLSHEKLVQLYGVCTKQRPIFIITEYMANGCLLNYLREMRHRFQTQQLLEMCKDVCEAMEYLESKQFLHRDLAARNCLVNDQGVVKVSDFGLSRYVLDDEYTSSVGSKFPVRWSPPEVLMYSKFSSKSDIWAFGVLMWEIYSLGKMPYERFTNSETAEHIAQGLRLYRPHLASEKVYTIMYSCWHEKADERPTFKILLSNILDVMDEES
UniProt Q9UQM7, whole entry: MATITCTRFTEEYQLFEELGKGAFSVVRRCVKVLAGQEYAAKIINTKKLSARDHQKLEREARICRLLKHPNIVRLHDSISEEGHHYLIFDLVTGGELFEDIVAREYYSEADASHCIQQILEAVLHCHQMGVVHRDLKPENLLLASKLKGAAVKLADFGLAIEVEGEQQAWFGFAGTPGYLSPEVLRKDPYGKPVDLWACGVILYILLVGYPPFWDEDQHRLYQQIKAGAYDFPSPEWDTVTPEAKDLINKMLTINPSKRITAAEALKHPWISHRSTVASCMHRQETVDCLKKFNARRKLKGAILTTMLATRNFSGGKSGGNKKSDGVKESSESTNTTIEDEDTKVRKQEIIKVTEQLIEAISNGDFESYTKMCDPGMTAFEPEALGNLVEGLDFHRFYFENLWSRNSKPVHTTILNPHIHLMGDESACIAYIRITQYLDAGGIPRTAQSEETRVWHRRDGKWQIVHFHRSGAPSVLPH
UniProt Q13555: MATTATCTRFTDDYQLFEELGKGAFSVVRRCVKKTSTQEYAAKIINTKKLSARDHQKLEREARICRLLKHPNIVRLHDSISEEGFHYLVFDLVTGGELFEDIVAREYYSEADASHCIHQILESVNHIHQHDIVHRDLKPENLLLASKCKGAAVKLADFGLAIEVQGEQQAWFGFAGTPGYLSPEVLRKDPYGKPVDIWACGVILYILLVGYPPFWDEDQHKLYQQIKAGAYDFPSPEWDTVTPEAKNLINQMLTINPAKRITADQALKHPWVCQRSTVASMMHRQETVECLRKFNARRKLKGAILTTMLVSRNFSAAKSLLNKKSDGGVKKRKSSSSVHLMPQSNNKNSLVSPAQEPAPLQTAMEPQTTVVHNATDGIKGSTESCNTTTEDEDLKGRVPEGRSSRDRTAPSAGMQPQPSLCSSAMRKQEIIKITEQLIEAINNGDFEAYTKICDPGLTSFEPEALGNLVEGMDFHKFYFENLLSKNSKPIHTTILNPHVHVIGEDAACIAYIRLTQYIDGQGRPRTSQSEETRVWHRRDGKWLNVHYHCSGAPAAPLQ
UniProt Q15131: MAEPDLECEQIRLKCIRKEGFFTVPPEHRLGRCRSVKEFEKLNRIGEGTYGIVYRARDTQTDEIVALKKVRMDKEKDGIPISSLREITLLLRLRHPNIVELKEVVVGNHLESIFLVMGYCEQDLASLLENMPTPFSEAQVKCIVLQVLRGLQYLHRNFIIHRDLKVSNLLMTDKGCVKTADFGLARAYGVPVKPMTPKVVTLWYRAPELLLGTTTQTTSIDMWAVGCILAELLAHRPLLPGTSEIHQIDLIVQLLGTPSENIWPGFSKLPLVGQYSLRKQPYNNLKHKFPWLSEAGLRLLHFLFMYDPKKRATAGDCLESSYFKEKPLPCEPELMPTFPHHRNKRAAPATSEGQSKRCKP
UniProt Q00526: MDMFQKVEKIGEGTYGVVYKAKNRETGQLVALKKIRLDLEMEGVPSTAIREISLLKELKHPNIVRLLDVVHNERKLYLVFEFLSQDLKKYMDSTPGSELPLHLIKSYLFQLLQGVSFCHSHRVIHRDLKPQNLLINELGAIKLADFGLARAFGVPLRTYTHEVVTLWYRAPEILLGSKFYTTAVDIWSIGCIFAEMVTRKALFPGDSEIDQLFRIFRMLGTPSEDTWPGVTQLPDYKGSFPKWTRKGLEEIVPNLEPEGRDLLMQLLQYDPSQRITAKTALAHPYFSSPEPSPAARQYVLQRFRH
UniProt Q00535, whole entry, looked up: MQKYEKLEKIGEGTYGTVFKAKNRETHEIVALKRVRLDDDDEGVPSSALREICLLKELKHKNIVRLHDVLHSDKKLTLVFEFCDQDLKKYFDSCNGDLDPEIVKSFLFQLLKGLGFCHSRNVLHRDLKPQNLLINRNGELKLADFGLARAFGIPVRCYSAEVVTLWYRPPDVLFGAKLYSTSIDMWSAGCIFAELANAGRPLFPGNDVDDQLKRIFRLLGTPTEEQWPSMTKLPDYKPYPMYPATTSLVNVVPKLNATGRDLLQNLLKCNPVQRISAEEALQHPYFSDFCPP
UniProt O96017, whole entry: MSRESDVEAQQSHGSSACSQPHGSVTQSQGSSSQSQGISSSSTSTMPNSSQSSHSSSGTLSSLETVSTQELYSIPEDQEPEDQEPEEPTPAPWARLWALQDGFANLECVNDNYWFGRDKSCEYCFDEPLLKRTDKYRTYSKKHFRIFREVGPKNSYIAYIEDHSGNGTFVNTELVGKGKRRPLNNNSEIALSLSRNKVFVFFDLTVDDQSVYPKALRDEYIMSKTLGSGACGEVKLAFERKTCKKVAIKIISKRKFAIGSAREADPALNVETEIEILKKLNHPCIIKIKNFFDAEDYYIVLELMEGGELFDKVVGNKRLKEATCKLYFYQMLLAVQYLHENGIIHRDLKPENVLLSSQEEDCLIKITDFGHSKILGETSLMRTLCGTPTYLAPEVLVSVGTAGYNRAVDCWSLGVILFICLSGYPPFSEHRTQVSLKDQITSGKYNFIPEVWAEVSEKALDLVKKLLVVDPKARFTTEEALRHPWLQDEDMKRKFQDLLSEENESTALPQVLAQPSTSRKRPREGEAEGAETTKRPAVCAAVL
UniProt P07333, whole entry: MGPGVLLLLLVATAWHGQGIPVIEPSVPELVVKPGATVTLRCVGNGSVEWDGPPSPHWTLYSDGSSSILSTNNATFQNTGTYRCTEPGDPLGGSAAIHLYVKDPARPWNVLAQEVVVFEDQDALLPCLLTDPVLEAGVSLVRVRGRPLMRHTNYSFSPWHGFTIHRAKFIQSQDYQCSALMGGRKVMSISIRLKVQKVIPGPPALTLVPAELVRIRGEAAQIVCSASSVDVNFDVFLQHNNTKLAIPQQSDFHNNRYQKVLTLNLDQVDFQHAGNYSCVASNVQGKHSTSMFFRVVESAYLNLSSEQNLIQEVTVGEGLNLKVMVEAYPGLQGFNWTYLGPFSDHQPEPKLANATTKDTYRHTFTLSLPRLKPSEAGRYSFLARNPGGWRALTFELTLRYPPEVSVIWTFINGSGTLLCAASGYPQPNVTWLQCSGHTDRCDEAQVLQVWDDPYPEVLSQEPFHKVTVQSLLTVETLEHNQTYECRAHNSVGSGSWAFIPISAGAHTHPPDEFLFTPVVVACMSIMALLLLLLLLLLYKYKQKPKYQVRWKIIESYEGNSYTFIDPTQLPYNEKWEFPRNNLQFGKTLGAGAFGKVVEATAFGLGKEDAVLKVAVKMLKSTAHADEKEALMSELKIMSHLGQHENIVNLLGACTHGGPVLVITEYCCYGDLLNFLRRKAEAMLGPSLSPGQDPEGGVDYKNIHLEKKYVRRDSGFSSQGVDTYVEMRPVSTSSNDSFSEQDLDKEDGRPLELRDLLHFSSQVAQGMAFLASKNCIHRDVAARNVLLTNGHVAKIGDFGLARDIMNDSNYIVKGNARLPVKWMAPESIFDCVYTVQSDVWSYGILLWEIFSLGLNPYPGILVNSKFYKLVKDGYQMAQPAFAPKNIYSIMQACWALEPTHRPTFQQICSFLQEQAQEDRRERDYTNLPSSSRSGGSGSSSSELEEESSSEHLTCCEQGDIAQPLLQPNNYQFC

Columns and labels:
Test in all cases: number of time points (of 5) at which kinase-Nluc abundance scored as decreased, DMSO-normalised (count); higher = more persistent destabilization
Details in all cases: K562; 2-18 h
[1] = target: ALK (UniProt Q9UM73)
[2] = target: ARAF (UniProt P10398)
[3] = target: AURKA (UniProt O14965)
[4] = target: AURKB (UniProt Q96GD4)
[5] = target: AURKC (UniProt Q9UQB9)
[6] = target: BLK (UniProt P51451)
[7] = target: BMX (UniProt P51813)
[8] = target: BRAF (UniProt P15056)
[9] = tested on: BRAF_V600E
[10] = target: BTK (UniProt Q06187)
[11] = target: CAMK2A (UniProt Q9UQM7)
[12] = target: CAMK2G (UniProt Q13555)
[13] = target: CDK10 (UniProt Q15131)
[14] = target: CDK2 (UniProt P24941)
[15] = target: CDK3 (UniProt Q00526)
[16] = target: CDK5 (UniProt Q00535)
[17] = target: CDK6 (UniProt Q00534)
[18] = target: CHEK2 (UniProt O96017)
[19] = target: CSF1R (UniProt P07333)
[20] = target: CSK (UniProt P41240)

Measured: number of time points

COc1ccc2c(c1)[nH]c1c(C)nccc12 [Harmine] (10 µM)
0: all assays above

Cc1n[nH]cc1-c1cc2nc([C@@H]3CC4CCN3CC4)[nH]c(=O)c2s1 [Simurosertib] (2.5 µM)
0: all assays above

O=c1cc(O)c2ccccc2o1 [4-Hydroxycoumarin] (10 µM)
0: all assays above

C=C[C@H]1CN2CC[C@]3(C(=O)Nc4ccccc43)[C@@H]2C[C@@H]1/C(=C\OC)C(=O)OC [Corynoxeine] (2 µM)
0: all assays above

O=C(N[C@@H](COc1ccc2[nH]c(=O)[nH]c2c1)c1ccccc1)c1cccn(Cc2ccc(F)c(F)c2)c1=O (2.5 µM)
0: all assays above

Cc1ccccc1-n1c(Cn2cnc3c(N)ncnc32)nc2cccc(C)c2c1=O (10 µM)
0: all assays above

N#CC(C#N)=Cc1ccc([N+](=O)[O-])c(O)c1 (10 µM)
0: all assays above

CCCCNc1nc(N)c2[nH]c(=O)n(Cc3ccc(C)nc3)c2n1 (10 µM)
0: all assays above

2 compounds drawn at random from those above, as already listed:
N#CC(C#N)=Cc1ccc([N+](=O)[O-])c(O)c1 (10 µM)
0: all assays above

O=C(N[C@@H](COc1ccc2[nH]c(=O)[nH]c2c1)c1ccccc1)c1cccn(Cc2ccc(F)c(F)c2)c1=O (2.5 µM)
0: all assays above

(cont.)

O=C1C=CC[C@@H]2[C@H]3CCCN4CCC[C@@H](CN12)[C@@H]34 [Sophocarpine] (10 µM)
0: all assays above

N#CC(C#N)=NNc1cccc(Cl)c1 (2.5 µM)
1: [9]
0: all other assays above

CCN1CCN(C(=O)Cc2ccc(Nc3ncc(F)c(Nc4ccc(C(=O)Nc5ccccc5Cl)cc4)n3)cc2)CC1 (2.5 µM)
0: all assays above

C[C@@H]1CC[C@H]2[C@@H](C)C(=O)O[C@@H]3O[C@@]4(C)CC[C@@H]1[C@]32OO4 [Artemisinin] (10 µM)
0: all assays above
